Assay results: PMC2845649
These are yes or no findings as the source states them, for the method shown. In cells and extracts the contact can be indirect. Some entries that bind do so weakly or less than the wild type.

The chains behind the UniProt entries cited, without tags or fusion partners. Where a name states a change or a piece, a line headed by the entry shows the natural chain unless it says otherwise.
UniProt P31749: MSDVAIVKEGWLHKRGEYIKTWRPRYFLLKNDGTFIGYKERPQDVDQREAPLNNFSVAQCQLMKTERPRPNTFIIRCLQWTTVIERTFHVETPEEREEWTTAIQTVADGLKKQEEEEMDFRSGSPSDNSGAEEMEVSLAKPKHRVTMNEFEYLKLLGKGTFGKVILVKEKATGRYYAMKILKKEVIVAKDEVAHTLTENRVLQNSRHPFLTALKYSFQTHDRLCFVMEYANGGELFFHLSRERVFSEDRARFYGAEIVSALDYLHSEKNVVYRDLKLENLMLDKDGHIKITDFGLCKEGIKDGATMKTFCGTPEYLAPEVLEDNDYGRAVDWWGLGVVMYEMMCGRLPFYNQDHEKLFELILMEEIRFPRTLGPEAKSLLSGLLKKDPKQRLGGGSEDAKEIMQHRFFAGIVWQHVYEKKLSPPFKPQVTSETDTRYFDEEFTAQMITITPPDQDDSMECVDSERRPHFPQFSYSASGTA

Tests used:
[1] = molecular target: IFPN-AKT1, P31749; assay: co-IP; HeLa cells stably expressing PDK1-IFPC and IFPN-AKT1, lysed in NP40 buffer (Tris-HCl pH 8.0 50 mM, NaCl 150 mM, NP-40 1%); IP with anti-AKT1 or normal IgG, blots with anti-PDK1 and anti-AKT; details: remark: other sources report otherwise
[2] = molecular target: IFPN-AKT1, P31749; assay: split reporter; protein-fragment complementation of IFP (Venus) fragments IFPN and IFPC, fluorescence in living HeLa cells, stably or transiently transfected; serum starved, 10% serum 10 min, or LY294002 20 µM 3 h; details: remark: other sources report otherwise
[3] = molecular target: IFPN-AKT1(R25A) (UniProt P31749); assay: as above
[4] = molecular target: IFPN-AKT1 (UniProt P31749); assay: as above

| binding [1] | binding [2] | binding [3] | binding [4] | Binder |
| --- | --- | --- | --- | --- |
| binds | binds | – | – | PDK1-IFPC, O15530 1-556 (protein) MARTTSQLYDAVPIQSSVVLCSCPSPSMVRTQTESSTPPGIPGGSRQGPAMDGTAAEPRPGAGSLQHAQPPPQPRKKRPEDFKFGKILGEGSFSTVVLARELATSREYAIKILEKRHIIKENKVPYVTRERDVMSRLDHPFFVKLYFTFQDDEKLYFGLSYAKNGELLKYIRKIGSFDETCTRFYTAEIVSALEYLHGKGIIHRDLKPENILLNEDMHIQITDFGTAKVLSPESKQARANSFVGTAQYVSPELLTEKSACKSSDLWALGCIIYQLVAGLPPFRAGNEYLIFQKIIKLEYDFPEKFFPKARDLVEKLLVLDATKRLGCEEMEGYGPLKAHPFFESVTWENLHQQTPPKLTAYLPAMSEDDEDCYGNYDNLLSQFGCMQVSSSSSSHSLSASDTGLPQRSGSNIEQYIHDLDSNSFELDLQFSEDEKRLLLEKQAGGNPWHQFVENNLILKMGPVDKRKGLFARRRQLLLTEGPHLYYVDPVNKVLKGEIPWSQELRPEAKNFKTFFVHTPNRTYYLMDPSGNAHKWCRKIQEVWRQRYQSHPDAAVQ |
| – | – | binds | – | PDK1-IFPC (protein, UniProt O15530 1-556) MARTTSQLYDAVPIQSSVVLCSCPSPSMVRTQTESSTPPGIPGGSRQGPAMDGTAAEPRPGAGSLQHAQPPPQPRKKRPEDFKFGKILGEGSFSTVVLARELATSREYAIKILEKRHIIKENKVPYVTRERDVMSRLDHPFFVKLYFTFQDDEKLYFGLSYAKNGELLKYIRKIGSFDETCTRFYTAEIVSALEYLHGKGIIHRDLKPENILLNEDMHIQITDFGTAKVLSPESKQARANSFVGTAQYVSPELLTEKSACKSSDLWALGCIIYQLVAGLPPFRAGNEYLIFQKIIKLEYDFPEKFFPKARDLVEKLLVLDATKRLGCEEMEGYGPLKAHPFFESVTWENLHQQTPPKLTAYLPAMSEDDEDCYGNYDNLLSQFGCMQVSSSSSSHSLSASDTGLPQRSGSNIEQYIHDLDSNSFELDLQFSEDEKRLLLEKQAGGNPWHQFVENNLILKMGPVDKRKGLFARRRQLLLTEGPHLYYVDPVNKVLKGEIPWSQELRPEAKNFKTFFVHTPNRTYYLMDPSGNAHKWCRKIQEVWRQRYQSHPDAAVQ |
| – | – | binds | binds | PDK1(R474A)-IFPC (protein, UniProt O15530 1-556) MARTTSQLYDAVPIQSSVVLCSCPSPSMVRTQTESSTPPGIPGGSRQGPAMDGTAAEPRPGAGSLQHAQPPPQPRKKRPEDFKFGKILGEGSFSTVVLARELATSREYAIKILEKRHIIKENKVPYVTRERDVMSRLDHPFFVKLYFTFQDDEKLYFGLSYAKNGELLKYIRKIGSFDETCTRFYTAEIVSALEYLHGKGIIHRDLKPENILLNEDMHIQITDFGTAKVLSPESKQARANSFVGTAQYVSPELLTEKSACKSSDLWALGCIIYQLVAGLPPFRAGNEYLIFQKIIKLEYDFPEKFFPKARDLVEKLLVLDATKRLGCEEMEGYGPLKAHPFFESVTWENLHQQTPPKLTAYLPAMSEDDEDCYGNYDNLLSQFGCMQVSSSSSSHSLSASDTGLPQRSGSNIEQYIHDLDSNSFELDLQFSEDEKRLLLEKQAGGNPWHQFVENNLILKMGPVDKRKGLFARRAQLLLTEGPHLYYVDPVNKVLKGEIPWSQELRPEAKNFKTFFVHTPNRTYYLMDPSGNAHKWCRKIQEVWRQRYQSHPDAAVQ |
